Measurements from PMC7822942.
These are yes or no findings as the source states them, for the method shown. Binding seen in cells or lysates may run through a third protein. Binding calls can cover weak binding; strength is not graded here.

How the values were obtained:
Assay in all cases: co-IP; synaptosomal fractions of adult brains of gephyrin floxed mice injected with the indicated AAVs; immunoprecipitated with an anti-gephyrin antibody, mouse IgG as negative control; immunoblot
[1] = target: EGFP-fused gephyrin A91T (rat), expressed from AAV in mouse dentate gyrus (rat)
[2] = target: EGFP-fused gephyrin G375D (rat), expressed from AAV in mouse dentate gyrus (rat)
[3] = target: EGFP-fused gephyrin WT (rat), expressed from AAV in mouse dentate gyrus (rat)

Measured: binding

B1: collybistin (protein, UniProt Q3UTH8 1-516)
chain: MYDLITGDSIVSAEAVWDHVTMANRELAFKAGDVIKVLDASNKDWWWGQIDDEEGWFPASFVRLWVNQEDGVEEGPSDVQNGHLDPNSDCLCLGRPLQNRDQMRANVINEIMSTERHYIKHLKDICEGYLKQCRKRRDMFSDEQLKVIFGNIEDIYRFQMGFVRDLEKQYNNDDPHLSEIGPCFLEHQDGFWIYSEYCNNHLDACMELSKLMKDSRYQHFFEACRLLQQMIDIAIDGFLLTPVQKICKYPLQLAELLKYTAQDHSDYRYVAAALAVMRNVTQQINERKRRLENIDKIAQWQASVLDWEGEDILDRSSELIYTGEMAWIYQPYGRNQQRVFFLFDHQMVLCKKDLIRRDILYYKGRIDMDKYEVIDIEDGRDDDFNVSMKNAFKLHNKETEEVHLFFAKKLEEKIRWLRAFREERKMVQEDEKIGFEISENQKRQAAMTVRKASKQKGVNSARSVPPSYPPPQDPLNQGQYLVPDGIAQSQVFEFTEPKRSQSPFWQNFSRLTPFKK
binds: all assays above

B2: IQSEC3 (protein, UniProt Q3TES0 1-1195)
chain: MESLLENPVRAVLYLKELTAIVQNQQSLIHTQRQRIDELERRLDELSAENRSLWEHQQLLQAQPPPGLVPPPPSAPLPAPAVTAPAAAAAQEPLQDHGQLIPASPEPPLQHHGQLLAQPQPAPSSRVQTPQSPHQHPVAPGAIADKEKERPSSCCAAAGALLQHASPAALGKGVLSRRPENETVLHQFCCPAADTEQKPACSDLASQSDGSCAQAGGGMEDSVVAAVAAGRPSAHAPKAQAPELQQEEERPGAVGSPRAGPLRAASPGRQQPALATALCSHTPAASEYELSLDLKNKQIEMLEHKYGGHLVSRRAACTIQTAFRQYQLSKNFEKIRNSLLESRLPRRISLRKVRAPTAESLVAEKALLEGCGLLGLPLGRSPSLPPTFAGSLTELEDSFTEQVQSLAKSIDDALSTWSLKTMCSLQESGAYQLHQALHPSAGQPGLETEAAAREPESGPGSGDEAGGLPQGHSGTLMMAFRDVTVQIANQNISVSSSTALSVANCLGAQTAQATAEPAAAQAEQEDTADQEVSEVPASEQMDPPSEDSEAAESRAQSAQEPAVAQAVVEEAVATEAEEEEEGAKQAGKGAEAEGGDNSEQLSSSSASTKSAKSSSEASAAASKEALQAVILSLPRYHCENPASCRSPTLSTDTLRKRLYRIGLNLFNINPDKGIQFLISRGFIPDTPIGVAHFLLQRKGLSRQMIGEFLGNSKKQFNRDVLDCVVDEMDFSNMELDEALRKFQAHIRVQGEAQKVERLIEAFSQRYCMCNPEVVQQFHNPDTIFILAFAIILLNTDMYSPNIKPDRKMMLEDFIRNLRGVDDGADIPRELVVGIYERIQQKELKSNEDHVTYVTKVEKSIVGMKTVLSMPHRRLVCCSRLFEVTDVNKLQKQAAHQREVFLFNDLLVILKLCPKKKSSFTYTFCKAVGLLGMRFHLFENEYYSHGITLATPLSGSEKKQVLHFCALGSDEMQKFVEDLKESIAEVTELEQIRIEWELEKQQGTKTLSVRSAGAQGDPQSKQGSPTAKREAMAGEKAAESSGEVSIHNRLQTSQHSPKLGVERGAPAPSPPTSPPPLPPDPQPSPLREQPPPLPLPPPTPPGTLVQCQQIVKVIVLDKPCLARMEPLLSQALSCYASSSSDSCGSTPLRGPGSPVKVIHQPPLPPPPPPYNHPHQFCPPGSMLLRRRYSSGSRSLV
binds: all assays above
